# Experimental data from paper PMC5491494.
# Sequences of proteins named here, by UniProt entry; tags and fusion partners are left off. Residues count along the entry.
# UniProt Q13148, 1-80: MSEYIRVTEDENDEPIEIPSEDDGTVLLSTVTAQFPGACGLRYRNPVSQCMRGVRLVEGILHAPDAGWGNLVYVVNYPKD
# For at least one entry, the source does not settle the construct or the ends of the probe.
# Target: TDP-43 NTD (wild type) (Homo sapiens) (UniProt Q13148)
# Assay: EMSA
# Conditions: specific but low affinity; recombinant protein; residues 1-80; protein details: N-terminal His (pET-28a(+)); single-stranded DNA
sequence,measurement,value
TGTGTGTGTGTG [(TG)6 oligonucleotide],binding result,binds
